# Data reported in patent publication US10426813B2, “Method to enhance endurance” (KYOWA HAKKO BIO CO., LTD., priority 2009, dated 2019).
# Peptide text beside a SMILES is read from it.
# Experiments:
# [1] = Cardiovascular changes during exercise protocol (heart rate, blood pressure, RER); assay type: in vivo, human; conditions: for Resting Heart Rate: mean ± SD
# Procedure: Subjects reported to the Human Performance Laboratory (HPL) on six separate occasions. During the initial session, subjects performed a graded maximal aerobic capacity test (VO2 max) on an electromagnetically braked cycle ergometer (Ergo 800, SensorMedics, Inc., Yorba Linda, Calif.). The VO2 max test was administered to establish workloads for subsequent endurance tests. VO2, RER, and VE were measured using the MedGraphics ULTIMA metabolic system (MedGraphics Corporation, St. Paul, Minn.). Gas analyzers were calibrated using gas provided by MedGraphics Corporation: 1) calibration gas: 5% CO2, 12% O2, balance N2; and 2) reference gas: 21% O2, balance N2. Gas calibration was conducted before each trial. Heart rate (HR) was measured using a wireless HR monitor (Pacer, Polar CIC, Inc., Port Washington, N.Y.). On four of the five subsequent visits to the HPL, subjects dehydrated to 2.5% of their baseline body mass. On the occasion that a dehydration protocol was not employed, subjects reported to the HPL in a euhydrated state to provide a baseline blood draw and perform the exercise protocol. This trial (T1) provided baseline performance data for how subjects performed in optimal conditions without hydration stress. All performance comparisons were made to this trial. In one trial (T2) subjects achieved their goal weight (−2.5% of baseline body weight) and rested in a recumbent position for 45 minutes before commencing the exercise session. In the subsequent three trials subjects reached their goal weight (−2.5% of baseline body mass) and then rehydrated to −1.5% of their baseline body mass by drinking either water (T3) or two different doses (T4 and T5) of the alanyl-glutamine (ALA-GLU) supplement (0.05 g·kg^−1 and 0.2 g·kg^−1, respectively). During the hydration trials (T3-T5), the exercise protocol began 45 minutes following reaching their goal weight. During this time frame, subjects were rehydrated. The order of the trials was randomly determined. Subjects consumed the supplement or placebo (water) following the dehydration protocol as part of their rehydration to −1.5% of their baseline body mass. The L-alanyl-L-glutamine supplement (0.2 g·kg^−1 or 0.05 g·kg^−1) (Kyowa Hakko USA, New York, N.Y.) was mixed with water and was indistinguishable in appearance and taste from the placebo. After dehydration and rehydration (except during trial T2), subjects began the exercise protocol. Subjects exercised at a workload that elicited 75% of their VO2 max on a cycle ergometer. Subjects were encouraged to give their best effort during each trial, and were verbally encouraged throughout each exercise trial. Oxygen consumption, minute ventilation, respiratory exchange ratio, and heart rate were measured continuously. Heart rate and blood pressure were recorded before and at the conclusion of exercise. Time to exhaustion was determined as the time that the subject could no longer maintain the workload and/or reach volitional exhaustion.
# [2] = Plasma lactate, glucose, osmolality and electrolyte response to exercise; assay type: in vivo, human
# Source text: On four of the five subsequent visits to the HPL, subjects dehydrated to 2.5% of their baseline body mass. On the occasion that a dehydration protocol was not employed, subjects reported to the HPL in a euhydrated state to provide a baseline blood draw and perform the exercise protocol. This trial (T1) provided baseline performance data for how subjects performed in optimal conditions without hydration stress. All performance comparisons were made to this trial. In one trial (T2) subjects achieved their goal weight (−2.5% of baseline body weight) and rested in a recumbent position for 45 minutes before commencing the exercise session. In the subsequent three trials subjects reached their goal weight (−2.5% of baseline body mass) and then rehydrated to −1.5% of their baseline body mass by drinking either water (T3) or two different doses (T4 and T5) of the alanyl-glutamine (ALA-GLU) supplement (0.05 g·kg^−1 and 0.2 g·kg^−1, respectively). During the hydration trials (T3-T5), the exercise protocol began 45 minutes following reaching their goal weight. During this time frame, subjects were rehydrated. The order of the trials was randomly determined.
# Subjects consumed the supplement or placebo (water) following the dehydration protocol as part of their rehydration to −1.5% of their baseline body mass. The L-alanyl-L-glutamine supplement (0.2 g·kg^−1 or 0.05 g·kg^−1) (Kyowa Hakko USA, New York, N.Y.) was mixed with water and was indistinguishable in appearance and taste from the placebo.
# A baseline (BL) blood draw occurred during T1. No other blood was drawn during that trial. The BL blood sample was drawn following a 15-min equilibration period prior to exercise. During trials T2-T5, blood draws occurred once goal body mass was achieved (DHY), immediately prior to the exercise stress (RHY), and immediately following the exercise protocol (IP). Subjects returned to the laboratory 24 hours post exercise for an additional blood draw (24P). All trial blood samples (DHY, RHY and IP) were obtained using a 20-gauge Teflon cannula placed in a superficial forearm vein using a 3-way stopcock with a male luer lock adapter. The cannula was maintained in the patient using an isotonic saline solution (with 10% heparin). IP blood samples were taken within 15 seconds of exercise cessation. All BL and 24P blood samples were drawn with a plastic syringe while the subject was in a seated position. These blood samples were obtained from an antecubital arm vein using a 20-gauge disposable needle equipped with a Vacutainer® tube holder (Becton Dickinson, Franklin Lakes, N.J.) with the subject in a seated position. Each subjects' blood samples were obtained at the same time of day during each session. Blood samples were collected into two Vacutainer® tubes, one containing SST® Gel and Clot Activator and the second containing EDTA. A small aliquot of whole blood was removed from the second tube and used for microcapillary determination of hematocrit. The remaining blood in that tube was used for hemoglobin and several of the hormonal and biochemical analyses. Hemoglobin measures were performed without freezing, but the remaining plasma was placed into separate 1.8-ml microcentrifuge tubes and frozen at −80° C. for later analysis. The blood in the first tube was allowed to clot at room temperature and subsequently centrifuged at 1500×g for 15 minutes. The resulting serum was placed into separate 1.8-ml microcentrifuge tubes and frozen at −80° C. for later analysis.
# Hemoglobin was analyzed in triplicate from whole blood using the cyanmethemoglobin method (Sigma Diagnostics, St. Louis, Mo.). Hematocrit was analyzed in triplicate from whole blood via microcentrifugation (IEC micro-MB centrifuge, Needham, Mass.) and microcapillary technique. Plasma volume shifts following the workout were calculated using the formula of Dill & Costill (1974). […]
# [3] = T4, 0.05 g·kg^−1, immediate post exercise
# [4] = T5, 0.2 g·kg^−1, immediate post exercise
# [5] = T4, 0.05 g·kg^−1, DHY (before supplement)
# [6] = T5, 0.2 g·kg^−1, DHY (before supplement)
smiles,measurement,setting,value
"C[C@H](N)C(=O)N[C@@H](CCC(N)=O)C(=O)O [alanyl-glutamine, L-alanyl-L-glutamine] (H-Ala-Gln-OH)",RER,"[1]; T4, 0.05 g·kg^−1",1.08 ± 0.10
same,Resting DBP,"[1]; T4, 0.05 g·kg^−1",79.0 ± 2.7 mmHg
same,Resting SBP,"[1]; T4, 0.05 g·kg^−1",114.8 ± 5.2 mmHg
same,IP DBP,[1]; [3],88.3 ± 11.6 mmHg
same,IP Heart Rate,[1]; [3],183.0 ± 12.5 beats·min^−1
same,IP SBP,[1]; [3],150.3 ± 23.0 mmHg
same,RER,"[1]; T5, 0.2 g·kg^−1",1.07 ± 0.08
same,Resting DBP,"[1]; T5, 0.2 g·kg^−1",77.2 ± 5.9 mmHg
same,Resting SBP,"[1]; T5, 0.2 g·kg^−1",113.0 ± 7.7 mmHg
same,IP DBP,[1]; [4],84.8 ± 11.9 mmHg
same,IP Heart Rate,[1]; [4],184.2 ± 13.0 beats·min^−1
same,IP SBP,[1]; [4],152.5 ± 19.6 mmHg
same,Resting Heart Rate,"[1]; trial T4, 0.05 g·kg^−1 oral in rehydration water",76.7 ± 17.6 beats · min^−1
same,Resting Heart Rate,"[1]; trial T5, 0.2 g·kg^−1 oral in rehydration water",76.9 ± 15.8 beats · min^−1
same,Plasma Lactate,"[2]; T4, 0.05 g·kg^−1, DHY (after dehydration, before supplement)",2.0 ± 0.6 mmol/L
same,Plasma Glucose,[2]; [5],6.4 ± 1.4 mmol/L
same,Plasma Osmolality,[2]; [5],296 ± 4 mOsm
same,Plasma Potassium,[2]; [5],4.1 ± 0.3 mmol/L
same,Plasma Sodium,[2]; [5],141.1 ± 2.5 mmol/L
same,Plasma Glucose,"[2]; T4, 0.05 g·kg^−1, IP",8.4 ± 1.9 mmol/L
same,Plasma Osmolality,"[2]; T4, 0.05 g·kg^−1, IP",302 ± 5 mOsm
same,Plasma Potassium,"[2]; T4, 0.05 g·kg^−1, IP",4.4 ± 0.4 mmol/L
same,Plasma Sodium,"[2]; T4, 0.05 g·kg^−1, IP",140.7 ± 2.0 mmol/L
same,Plasma Lactate,"[2]; T4, 0.05 g·kg^−1, IP (immediate post-exercise)",9.9 ± 4.2 mmol/L
same,Plasma Glucose,"[2]; T4, 0.05 g·kg^−1, RHY",6.4 ± 0.9 mmol/L
same,Plasma Osmolality,"[2]; T4, 0.05 g·kg^−1, RHY",292 ± 4 mOsm
same,Plasma Potassium,"[2]; T4, 0.05 g·kg^−1, RHY",4.3 ± 0.6 mmol/L
same,Plasma Sodium,"[2]; T4, 0.05 g·kg^−1, RHY",138.7 ± 1.9 mmol/L
same,Plasma Lactate,"[2]; T4, 0.05 g·kg^−1, RHY (after rehydration, before exercise)",2.0 ± 0.5 mmol/L
same,Plasma Lactate,"[2]; T5, 0.2 g·kg^−1, DHY (after dehydration, before supplement)",1.7 ± 0.6 mmol/L
same,Plasma Glucose,[2]; [6],5.7 ± 1.2 mmol/L
same,Plasma Osmolality,[2]; [6],298 ± 6 mOsm
same,Plasma Potassium,[2]; [6],4.0 ± 0.3 mmol/L
same,Plasma Sodium,[2]; [6],141.2 ± 1.4 mmol/L
same,Plasma Glucose,"[2]; T5, 0.2 g·kg^−1, IP",7.4 ± 2.6 mmol/L
same,Plasma Osmolality,"[2]; T5, 0.2 g·kg^−1, IP",303 ± 7 mOsm
same,Plasma Potassium,"[2]; T5, 0.2 g·kg^−1, IP",4.5 ± 0.6 mmol/L
same,Plasma Sodium,"[2]; T5, 0.2 g·kg^−1, IP",140.2 ± 1.3 mmol/L
same,Plasma Lactate,"[2]; T5, 0.2 g·kg^−1, IP (immediate post-exercise)",11.7 ± 2.2 mmol/L
same,Plasma Glucose,"[2]; T5, 0.2 g·kg^−1, RHY",5.6 ± 1.2 mmol/L
same,Plasma Osmolality,"[2]; T5, 0.2 g·kg^−1, RHY",294 ± 4 mOsm
same,Plasma Potassium,"[2]; T5, 0.2 g·kg^−1, RHY",4.1 ± 0.4 mmol/L
same,Plasma Sodium,"[2]; T5, 0.2 g·kg^−1, RHY",138.7 ± 1.6 mmol/L
same,Plasma Lactate,"[2]; T5, 0.2 g·kg^−1, RHY (after rehydration, before exercise)",2.1 ± 0.4 mmol/L
